Laboratory results as given in the supplement of paper PMC11237882.
The other results are listed elsewhere or left out. Values are worked out from sequencing counts and are noisy.

T1: Homer1 EVH1 domain
T1 chain: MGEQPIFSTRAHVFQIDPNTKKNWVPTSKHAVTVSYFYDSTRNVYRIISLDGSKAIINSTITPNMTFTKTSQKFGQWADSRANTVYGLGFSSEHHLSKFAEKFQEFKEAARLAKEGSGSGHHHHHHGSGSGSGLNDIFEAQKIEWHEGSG

B1: unnamed (peptide)
chain: LTEHFFHASTQGILTINILRGQILIALCFVILLATT
B2: unnamed (peptide)
chain: MKYVFYLGVLAGTFFFADSSVQKEDPAPYLVYLKSH
B3: unnamed (peptide)
chain: EGQLPLLFNTLNSHSSPFTAVLLLVTLGSLAIILTS
B4: unnamed (peptide)
chain: KVKPAEAETAGAIMAFFLCLGLALGAVFSFLFRAIV
B5: unnamed (peptide)
chain: MDKLDANVSSEEGFGSVEKVVLLTFLSTVILMAILG
B6: unnamed (peptide)
chain: SALTQKGLKTVFDEAIIAILTPKKHTVKKKNRIKMY
B7: unnamed (peptide)
chain: YLGNLIALANLVSICVFLVLDADVLPAERDDFILGI
B8: unnamed (peptide)
chain: GSIDSGPPGLLRGAIPSSIWVVSIIMFRLILLILSV
B9: unnamed (peptide)
chain: DNRGDIGLLLGMIVFAVMLSILSLIGIFNRSFRTGI
B10: unnamed (peptide)
chain: QKRITKKNPKKAEKLERKKVYRAEYINFLENLKILE
B11: unnamed (peptide)
chain: TTNQISLGSLRSIVKSLLLVPNGALKKSLTAKQVQA
B12: unnamed (peptide)
chain: QVTACLIYINMYLSTIFLAFVSIDRCLQLTHSCKIY
B13: unnamed (peptide)
chain: FPPFLMILFIALCLLGSHLGSGPTYPSQAQGLQPRR
B14: unnamed (peptide)
chain: QNKVITYIACLMQMYFFILFAGFENFLLSVMAMNRV
B15: unnamed (peptide)
chain: RRYPELRKNNIENFSKDKDSIFKLRNLSRRTPKRHG
B16: unnamed (peptide)
chain: VVILPLSLFRNLGYLGYTSGLSLLCMVFFLIVVICK
B17: unnamed (peptide)
chain: MPPPPPFGFGVPAAPVLPFGLTPKKLYKPEVQLRRP
B18: unnamed (peptide)
chain: NAPEEKASVGPWLLALFVFVVCGSAIFQIIQSIRMG
B19: unnamed (peptide)
chain: IERLLKLAVPNHLIWLIFFYCLFHSCLNAVAELMQL
B20: unnamed (peptide)
chain: SIKVANKSDTQFQLHFLSKIYITLIHLVYLLLIINQ
B21: unnamed (peptide)
chain: SGHAAILISGNAKLRRAVMTILLWAQSSLKVRADHK
B22: unnamed (peptide)
chain: WAVINHFSNWLATSLSIFYLLKIANFSNLIFLHLKR
B23: unnamed (peptide)
chain: WYWSDYRDALSLQCLASFLFLYCACMSPVITFGGLL
B24: unnamed (peptide)
chain: DCAAYTISAAAVLGIIYDNQVYWYEGALLLLIYGLY
B25: unnamed (peptide)
chain: DVSVIRVASGYLLMLAYACLTMLRWDCSKSQGAVGL
B26: unnamed (peptide)
chain: LLLVIWCGVSALSMLTCSSVLHSGNFGTDFRPETPL
B27: unnamed (peptide)
chain: KWNKYGRPYFCILAALYLLYMICFTTCCVYRPLKFH
B28: unnamed (peptide)
chain: PIAKLFSVIKNKLSRKLLCTVFETLSDFESGLKYIT

Molecular target: T1, Homer1 EVH1 domain
Assay: enrichment score (AUC of log2 frequency ratio across FACS sorting rounds) (log2 AUC); higher = stronger enrichment for Homer1 EVH1 binding
With B1 the enrichment score was 2.97.
Work on B2 yielded an enrichment score of 0.601.
B3 gave an enrichment score of 1.32.
In the case of B4, the enrichment score is reported as 3.42.
B5 was tested, and the enrichment score was 2.98.
In the case of B6, the enrichment score is reported as -3.12.
B7 gave an enrichment score of 0.873.
Work on B8 yielded an enrichment score of 2.42.
For B9, the enrichment score was 3.44.
B10 gave an enrichment score of -0.377.
Work on B11 yielded an enrichment score of -3.22.
B12 showed an enrichment score of 1.02.
B13 showed an enrichment score of 3.08.
B14 gave an enrichment score of 3.74.
Work on B15 yielded an enrichment score of -0.0357.
Binder B16 has an enrichment score of 1.15.
B17 gave an enrichment score of 4.6.
Work on B18 yielded an enrichment score of 2.63.
B19 showed an enrichment score of 2.49.
With B20 the enrichment score was 0.982.
B21 gave an enrichment score of -3.15.
B22 was tested, and the enrichment score was 0.144.
For B23, the enrichment score was -2.37.
For B24, the enrichment score was -0.795.
For B25, the enrichment score was 4.96.
For B26, the enrichment score was 2.5.
With B27 the enrichment score was 0.678.
B28 showed an enrichment score of -1.15.
